Source: publication PMC8935242
Results are given in words; binding and its absence hold for the method and conditions named. In cells and extracts the contact can be indirect. Some binding calls cover weakened binding; strength is not graded here.

The chains behind the UniProt entries cited, without tags or fusion partners.
UniProt Q9UI95: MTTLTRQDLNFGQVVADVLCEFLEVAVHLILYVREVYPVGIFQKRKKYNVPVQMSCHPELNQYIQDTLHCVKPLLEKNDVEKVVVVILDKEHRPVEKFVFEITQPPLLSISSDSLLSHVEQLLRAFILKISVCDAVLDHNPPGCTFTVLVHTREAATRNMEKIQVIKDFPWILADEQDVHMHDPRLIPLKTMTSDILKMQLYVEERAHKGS

Molecular target: T1, Numb, endogenous in human podocytes (human (endogenous in human podocytes)) (UniProt P49757)
T1 sequence: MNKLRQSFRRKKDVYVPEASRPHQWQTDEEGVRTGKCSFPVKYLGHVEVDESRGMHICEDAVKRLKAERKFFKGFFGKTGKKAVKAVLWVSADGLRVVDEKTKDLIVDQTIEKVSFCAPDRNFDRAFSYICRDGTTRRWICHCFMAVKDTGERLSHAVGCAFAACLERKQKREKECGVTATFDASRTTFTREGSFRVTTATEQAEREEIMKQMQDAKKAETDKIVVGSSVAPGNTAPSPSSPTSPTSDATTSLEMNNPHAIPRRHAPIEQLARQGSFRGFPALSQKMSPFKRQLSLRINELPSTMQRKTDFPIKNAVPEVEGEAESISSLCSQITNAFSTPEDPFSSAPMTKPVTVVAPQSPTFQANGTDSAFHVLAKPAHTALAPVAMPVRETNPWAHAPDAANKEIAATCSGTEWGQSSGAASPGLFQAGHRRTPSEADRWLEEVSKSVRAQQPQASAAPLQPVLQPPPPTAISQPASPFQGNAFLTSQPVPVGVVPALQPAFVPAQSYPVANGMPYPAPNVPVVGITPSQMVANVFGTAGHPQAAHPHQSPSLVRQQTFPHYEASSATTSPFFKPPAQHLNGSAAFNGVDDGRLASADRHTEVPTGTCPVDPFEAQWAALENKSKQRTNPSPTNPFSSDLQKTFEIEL
Assay: co-IP; whole cell lysates (RIPA, 1 mg protein) of human podocytes, control or treated with high glucose; immunoprecipitated with anti-Numb or IgG and Protein A/G PLUS-Agarose, 4 °C; blotted with anti-MAD2B and anti-Numb

- binding: binds
Substance: MAD2B, endogenous in human podocytes (from UniProt Q9UI95 1-211)
